# Data from the supplement of paper PMC6411743.
# Chains of the proteins cited; added tags and fusions are not shown. Lines headed by an entry give the natural chain unless they say otherwise; changes in a name come on top.
# UniProt P11802: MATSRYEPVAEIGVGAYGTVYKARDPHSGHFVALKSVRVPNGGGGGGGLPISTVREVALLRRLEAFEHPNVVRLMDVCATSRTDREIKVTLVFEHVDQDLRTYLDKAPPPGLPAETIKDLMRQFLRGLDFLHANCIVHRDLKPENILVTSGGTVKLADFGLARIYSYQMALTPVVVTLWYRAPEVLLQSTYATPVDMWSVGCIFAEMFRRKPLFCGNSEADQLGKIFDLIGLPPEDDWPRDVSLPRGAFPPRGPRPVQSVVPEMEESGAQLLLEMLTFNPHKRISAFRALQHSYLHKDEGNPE
# UniProt P27348: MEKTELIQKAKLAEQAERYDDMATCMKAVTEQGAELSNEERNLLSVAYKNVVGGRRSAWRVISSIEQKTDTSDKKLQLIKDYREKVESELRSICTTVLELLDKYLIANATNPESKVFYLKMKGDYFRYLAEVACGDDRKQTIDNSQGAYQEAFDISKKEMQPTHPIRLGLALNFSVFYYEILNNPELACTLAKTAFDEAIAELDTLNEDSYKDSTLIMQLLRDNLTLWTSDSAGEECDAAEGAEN
# UniProt P51784: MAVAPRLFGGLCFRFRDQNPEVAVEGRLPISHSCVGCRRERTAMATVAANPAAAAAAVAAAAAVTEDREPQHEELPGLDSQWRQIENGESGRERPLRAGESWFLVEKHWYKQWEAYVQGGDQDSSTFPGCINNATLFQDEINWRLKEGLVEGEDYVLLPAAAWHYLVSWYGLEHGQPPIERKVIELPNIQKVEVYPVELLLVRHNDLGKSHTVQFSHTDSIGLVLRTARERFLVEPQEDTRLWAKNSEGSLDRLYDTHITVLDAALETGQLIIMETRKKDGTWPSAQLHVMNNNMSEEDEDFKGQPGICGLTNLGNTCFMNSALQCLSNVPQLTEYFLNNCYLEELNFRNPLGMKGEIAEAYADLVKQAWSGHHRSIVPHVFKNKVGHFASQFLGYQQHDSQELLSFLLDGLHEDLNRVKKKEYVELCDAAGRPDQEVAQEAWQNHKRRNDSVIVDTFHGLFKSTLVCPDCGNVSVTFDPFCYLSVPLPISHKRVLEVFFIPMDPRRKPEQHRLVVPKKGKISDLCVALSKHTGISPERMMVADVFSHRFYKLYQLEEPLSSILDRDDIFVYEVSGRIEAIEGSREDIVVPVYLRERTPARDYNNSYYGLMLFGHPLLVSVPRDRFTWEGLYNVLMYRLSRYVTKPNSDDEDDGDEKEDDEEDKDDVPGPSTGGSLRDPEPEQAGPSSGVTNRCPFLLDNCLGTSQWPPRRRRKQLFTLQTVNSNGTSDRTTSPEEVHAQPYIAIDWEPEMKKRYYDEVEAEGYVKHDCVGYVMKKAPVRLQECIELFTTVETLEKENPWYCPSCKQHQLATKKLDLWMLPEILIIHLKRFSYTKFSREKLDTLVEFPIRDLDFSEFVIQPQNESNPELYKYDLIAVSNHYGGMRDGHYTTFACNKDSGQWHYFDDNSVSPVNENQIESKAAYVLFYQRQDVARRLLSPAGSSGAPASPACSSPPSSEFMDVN
# UniProt Q9H9C1: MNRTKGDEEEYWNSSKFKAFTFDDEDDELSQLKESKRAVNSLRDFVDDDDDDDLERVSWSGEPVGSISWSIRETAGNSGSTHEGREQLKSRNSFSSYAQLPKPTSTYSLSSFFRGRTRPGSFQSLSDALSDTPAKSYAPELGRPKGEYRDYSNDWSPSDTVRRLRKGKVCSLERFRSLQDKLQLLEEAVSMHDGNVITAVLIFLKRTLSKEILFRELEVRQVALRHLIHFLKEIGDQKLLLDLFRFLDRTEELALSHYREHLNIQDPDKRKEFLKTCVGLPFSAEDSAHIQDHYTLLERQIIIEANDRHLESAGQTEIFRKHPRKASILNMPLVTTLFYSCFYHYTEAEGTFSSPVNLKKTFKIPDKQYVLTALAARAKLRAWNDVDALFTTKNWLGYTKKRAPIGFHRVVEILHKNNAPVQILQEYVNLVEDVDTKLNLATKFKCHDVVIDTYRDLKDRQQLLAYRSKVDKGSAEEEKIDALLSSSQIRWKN
# UniProt Q6UW02: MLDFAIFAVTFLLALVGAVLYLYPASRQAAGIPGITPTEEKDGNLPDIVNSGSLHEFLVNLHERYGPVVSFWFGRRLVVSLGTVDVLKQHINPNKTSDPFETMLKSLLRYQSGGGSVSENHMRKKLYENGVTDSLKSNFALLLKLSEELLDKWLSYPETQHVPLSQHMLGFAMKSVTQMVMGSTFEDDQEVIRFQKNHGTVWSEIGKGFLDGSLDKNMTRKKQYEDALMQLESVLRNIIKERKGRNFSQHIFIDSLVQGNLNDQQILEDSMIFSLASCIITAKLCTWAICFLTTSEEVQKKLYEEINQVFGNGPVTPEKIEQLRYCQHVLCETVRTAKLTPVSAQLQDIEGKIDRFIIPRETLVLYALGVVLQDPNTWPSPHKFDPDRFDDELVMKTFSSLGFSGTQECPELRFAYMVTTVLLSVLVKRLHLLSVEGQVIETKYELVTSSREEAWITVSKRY
# UniProt Q9NUM4, whole entry: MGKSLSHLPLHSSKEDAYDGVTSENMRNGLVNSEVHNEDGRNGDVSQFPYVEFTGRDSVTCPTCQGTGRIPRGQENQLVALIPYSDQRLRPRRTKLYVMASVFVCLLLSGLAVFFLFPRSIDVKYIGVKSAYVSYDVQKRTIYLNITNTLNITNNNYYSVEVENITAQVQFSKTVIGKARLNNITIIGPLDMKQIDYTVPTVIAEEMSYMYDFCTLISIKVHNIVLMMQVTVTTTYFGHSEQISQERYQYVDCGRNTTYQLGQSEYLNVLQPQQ
# UniProt Q13449: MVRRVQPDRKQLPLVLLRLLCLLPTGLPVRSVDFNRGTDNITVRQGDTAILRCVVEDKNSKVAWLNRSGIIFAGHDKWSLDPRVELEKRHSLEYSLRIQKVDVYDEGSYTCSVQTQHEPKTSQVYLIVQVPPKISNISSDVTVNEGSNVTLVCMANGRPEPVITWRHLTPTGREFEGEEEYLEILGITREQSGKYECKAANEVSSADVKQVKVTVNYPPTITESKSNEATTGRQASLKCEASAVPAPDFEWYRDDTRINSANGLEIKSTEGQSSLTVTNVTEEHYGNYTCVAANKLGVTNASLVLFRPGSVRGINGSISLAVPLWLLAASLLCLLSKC
# UniProt Q96ME7: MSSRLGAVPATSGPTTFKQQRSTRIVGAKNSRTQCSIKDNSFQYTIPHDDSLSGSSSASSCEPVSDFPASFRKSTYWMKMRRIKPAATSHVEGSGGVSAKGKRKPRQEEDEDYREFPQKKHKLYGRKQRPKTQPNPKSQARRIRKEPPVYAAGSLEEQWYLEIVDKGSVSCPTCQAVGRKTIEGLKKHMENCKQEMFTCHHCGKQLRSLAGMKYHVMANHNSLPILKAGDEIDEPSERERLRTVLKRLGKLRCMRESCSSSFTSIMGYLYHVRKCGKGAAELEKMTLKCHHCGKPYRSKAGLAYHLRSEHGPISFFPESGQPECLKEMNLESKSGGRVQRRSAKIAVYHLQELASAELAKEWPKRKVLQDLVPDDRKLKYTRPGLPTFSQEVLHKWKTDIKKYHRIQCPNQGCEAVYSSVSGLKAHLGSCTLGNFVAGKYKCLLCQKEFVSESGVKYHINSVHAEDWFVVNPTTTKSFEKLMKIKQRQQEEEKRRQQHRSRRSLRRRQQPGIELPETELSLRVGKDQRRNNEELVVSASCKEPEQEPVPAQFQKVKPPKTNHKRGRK
# UniProt Q9UJ41, whole entry: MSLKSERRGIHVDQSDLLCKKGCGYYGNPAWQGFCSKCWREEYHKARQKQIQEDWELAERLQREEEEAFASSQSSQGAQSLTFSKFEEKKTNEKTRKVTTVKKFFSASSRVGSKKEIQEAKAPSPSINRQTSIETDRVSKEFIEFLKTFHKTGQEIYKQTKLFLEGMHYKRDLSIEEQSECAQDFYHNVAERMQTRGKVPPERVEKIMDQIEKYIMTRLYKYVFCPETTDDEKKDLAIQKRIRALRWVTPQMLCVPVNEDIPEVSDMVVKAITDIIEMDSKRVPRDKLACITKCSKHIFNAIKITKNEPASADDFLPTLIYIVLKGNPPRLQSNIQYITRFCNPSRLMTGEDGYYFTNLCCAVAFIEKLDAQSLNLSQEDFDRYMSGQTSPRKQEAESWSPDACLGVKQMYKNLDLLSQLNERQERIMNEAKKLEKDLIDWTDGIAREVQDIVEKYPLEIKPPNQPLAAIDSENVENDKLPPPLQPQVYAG
# UniProt Q9NRS6: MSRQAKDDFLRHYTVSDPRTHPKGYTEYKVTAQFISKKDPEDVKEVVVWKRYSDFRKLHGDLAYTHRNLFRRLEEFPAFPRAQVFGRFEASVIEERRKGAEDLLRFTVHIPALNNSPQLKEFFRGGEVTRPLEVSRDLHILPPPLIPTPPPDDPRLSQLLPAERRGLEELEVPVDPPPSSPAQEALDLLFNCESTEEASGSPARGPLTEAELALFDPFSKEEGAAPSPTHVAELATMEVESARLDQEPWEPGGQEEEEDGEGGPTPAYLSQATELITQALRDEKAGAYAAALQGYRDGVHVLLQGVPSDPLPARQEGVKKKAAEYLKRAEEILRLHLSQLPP
# UniProt P15311, whole entry: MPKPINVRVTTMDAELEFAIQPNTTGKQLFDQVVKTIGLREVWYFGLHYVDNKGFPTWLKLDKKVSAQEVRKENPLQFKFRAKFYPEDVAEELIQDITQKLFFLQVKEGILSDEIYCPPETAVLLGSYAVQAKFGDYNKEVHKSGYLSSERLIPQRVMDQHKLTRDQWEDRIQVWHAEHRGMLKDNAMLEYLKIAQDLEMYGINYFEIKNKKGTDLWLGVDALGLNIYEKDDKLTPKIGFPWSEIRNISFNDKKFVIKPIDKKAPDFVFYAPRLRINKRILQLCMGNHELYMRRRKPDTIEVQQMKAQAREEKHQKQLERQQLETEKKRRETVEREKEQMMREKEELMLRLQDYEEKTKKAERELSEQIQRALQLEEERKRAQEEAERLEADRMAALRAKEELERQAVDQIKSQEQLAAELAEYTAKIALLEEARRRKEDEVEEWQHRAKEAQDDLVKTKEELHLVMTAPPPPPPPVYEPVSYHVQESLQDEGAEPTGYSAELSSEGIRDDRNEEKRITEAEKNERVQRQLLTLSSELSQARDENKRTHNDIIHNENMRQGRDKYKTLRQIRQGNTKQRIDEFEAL
# UniProt Q9Y4C1: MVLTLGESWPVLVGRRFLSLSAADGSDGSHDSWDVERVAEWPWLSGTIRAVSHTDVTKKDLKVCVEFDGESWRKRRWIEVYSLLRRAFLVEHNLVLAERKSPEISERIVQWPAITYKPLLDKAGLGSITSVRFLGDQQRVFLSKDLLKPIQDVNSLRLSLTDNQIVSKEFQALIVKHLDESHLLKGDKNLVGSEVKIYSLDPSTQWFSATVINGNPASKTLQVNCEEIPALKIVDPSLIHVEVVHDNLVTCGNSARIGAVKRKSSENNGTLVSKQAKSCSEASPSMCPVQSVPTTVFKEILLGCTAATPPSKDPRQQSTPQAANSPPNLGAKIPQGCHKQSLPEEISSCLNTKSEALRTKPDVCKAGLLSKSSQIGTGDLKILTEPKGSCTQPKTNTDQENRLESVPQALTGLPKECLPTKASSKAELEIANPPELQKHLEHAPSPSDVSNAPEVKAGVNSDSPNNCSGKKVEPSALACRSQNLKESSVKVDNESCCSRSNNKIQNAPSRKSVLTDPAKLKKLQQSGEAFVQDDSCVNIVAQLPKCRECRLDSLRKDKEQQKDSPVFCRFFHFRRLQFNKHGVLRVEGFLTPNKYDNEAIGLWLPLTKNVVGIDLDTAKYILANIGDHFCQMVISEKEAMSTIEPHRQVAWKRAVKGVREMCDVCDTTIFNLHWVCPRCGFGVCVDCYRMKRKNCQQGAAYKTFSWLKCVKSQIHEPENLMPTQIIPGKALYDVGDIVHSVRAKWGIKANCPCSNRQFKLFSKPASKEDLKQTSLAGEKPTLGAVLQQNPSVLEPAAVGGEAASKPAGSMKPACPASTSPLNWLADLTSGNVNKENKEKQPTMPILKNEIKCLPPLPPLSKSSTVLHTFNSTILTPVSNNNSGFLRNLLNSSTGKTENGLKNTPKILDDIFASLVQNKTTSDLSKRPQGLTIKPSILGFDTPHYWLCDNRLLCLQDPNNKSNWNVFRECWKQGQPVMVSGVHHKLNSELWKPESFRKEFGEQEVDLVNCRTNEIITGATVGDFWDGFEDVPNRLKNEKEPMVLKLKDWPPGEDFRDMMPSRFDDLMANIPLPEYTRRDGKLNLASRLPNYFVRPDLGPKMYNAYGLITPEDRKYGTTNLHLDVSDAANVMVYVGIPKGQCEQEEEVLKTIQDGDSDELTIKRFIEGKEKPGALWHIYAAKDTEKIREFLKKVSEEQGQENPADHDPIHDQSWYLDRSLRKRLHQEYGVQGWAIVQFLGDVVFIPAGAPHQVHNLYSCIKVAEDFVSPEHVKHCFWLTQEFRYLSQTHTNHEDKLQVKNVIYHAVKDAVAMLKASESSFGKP
# ± gives the standard deviation of the averaged measurements. Some of the results follow.
# Compound: Nc1nc2c(ncn2[C@@H]2O[C@H](COP(=O)(O)OP(=O)(O)OP(=O)(O)O)[C@@H](O)[C@H]2O)c(=O)[nH]1 [guanosine triphosphate]
# Assay: NP40-soluble protein abundance relative to vehicle (solubility fold change) (ratio); higher = more soluble protein in presence of GTP
# In short: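 Each value is a fold change relative to the detergent-processed vehicle, calculated per replicate from vsn-normalised intensities. Jurkat crude lysate received eight concentrations (0.1 to 10 mM) for 10 min at room temperature and 3 min at 37 °C, then was solubilised in 0.8% NP40 with benzonase (60 min, 4 °C). The ultracentrifuged supernatant was TMT-labelled and run by LC-MS/MS in three independent experiments.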
Target,NP40-soluble protein abundance (concentration: 0.1mM),NP40-soluble protein abundance (concentration: 0.5mM),NP40-soluble protein abundance (concentration: 1mM),NP40-soluble protein abundance (concentration: 2mM),NP40-soluble protein abundance (concentration: 4mM),NP40-soluble protein abundance (concentration: 6mM),NP40-soluble protein abundance (concentration: 8mM),NP40-soluble protein abundance (concentration: 10mM)
F8VTV8 and related entries (UniProt P11802),0.977 ± 0.13,1.06 ± 0.048,0.999 ± 0.041,1.05 ± 0.071,1.06 ± 0.056,1.02 ± 0.049,0.995 ± 0.04,0.973 ± 0.015
E9PG15 and related entries (UniProt P27348),0.787 ± 0.082,0.767 ± 0.071,0.943 ± 0.087,0.951 ± 0.033,0.887 ± 0.037,0.928 ± 0.051,0.803 ± 0.13,0.977 ± 0.075
G5E9A6 and related entries (UniProt P51784),1.009 ± 0.0061,1.03 ± 0.044,0.947 ± 0.0056,0.95 ± 0.046,0.935 ± 0.054,0.917 ± 0.034,0.915 ± 0.03,0.883 ± 0.05
G3V4K3 and related entries (UniProt Q9H9C1),0.961 ± 0.06,1.01 ± 0.06,0.913 ± 0.02,0.895 ± 0.045,0.896 ± 0.034,0.926 ± 0.058,0.93 ± 0.053,0.93 ± 0.086
E9PHG5 and related entries (UniProt Q6UW02),1.1 ± 0.21,1.04 ± 0.17,1.01 ± 0.075,1.04 ± 0.061,0.955 ± 0.16,0.984 ± 0.14,0.882 ± 0.25,0.884 ± 0.14
F2Z3N7 and related entries (UniProt Q9NUM4),0.98 ± 0.036,0.932 ± 0.076,1.15 ± 0.077,1.06 ± 0.048,0.84 ± 0.18,0.949 ± 0.045,0.989 ± 0.051,0.969 ± 0.078
F5H5G1 and related entries (UniProt Q13449),0.872 ± 0.041,0.811 ± 0.043,0.868 ± 0.081,0.829 ± 0.033,0.89 ± 0.035,0.949 ± 0.091,0.908 ± 0.026,0.953 ± 0.014
G3XAG1 and related entries (UniProt Q96ME7),1.1 ± 0.013,1.17 ± 0.055,1.27 ± 0.04,1.445 ± 0.014,1.74 ± 0.059,1.88 ± 0.079,2.01 ± 0.13,2.17 ± 0.081
E9PFK9 and related entries (UniProt Q9UJ41),0.984 ± 0.024,0.985 ± 0.042,0.962 ± 0.028,0.961 ± 0.019,0.963 ± 0.03,0.945 ± 0.026,0.938 ± 0.034,0.937 ± 0.038
E9PLY5 and related entries (UniProt Q9UPN3+H3BQK9+H3BPE1+E9PLY5),1 ± 0.058,0.997 ± 0.062,1.02 ± 0.063,1 ± 0.069,1.01 ± 0.052,1.01 ± 0.049,1.03 ± 0.067,1.02 ± 0.073
E9PK26 and related entries (UniProt Q9NRS6),1.02 ± 0.029,0.923 ± 0.06,0.961 ± 0.063,0.964 ± 0.025,0.997 ± 0.074,0.96 ± 0.097,0.944 ± 0.07,0.954 ± 0.053
E7EQR4 and related entries (UniProt P15311),0.95 ± 0.033,0.978 ± 0.037,0.907 ± 0.055,0.865 ± 0.073,0.837 ± 0.07,0.872 ± 0.072,0.878 ± 0.051,0.846 ± 0.071
F5H070 and related entries (UniProt Q9Y4C1),1.03 ± 0.03,1.02 ± 0.039,0.987 ± 0.023,0.99 ± 0.029,0.987 ± 0.022,0.939 ± 0.053,0.954 ± 0.042,0.929 ± 0.029

# Part of the list above in a different format:
Target | NP40-soluble protein abundance (concentration: 0.1mM) | NP40-soluble protein abundance (concentration: 0.5mM) | NP40-soluble protein abundance (concentration: 1mM) | NP40-soluble protein abundance (concentration: 2mM) | NP40-soluble protein abundance (concentration: 4mM) | NP40-soluble protein abundance (concentration: 6mM) | NP40-soluble protein abundance (concentration: 8mM) | NP40-soluble protein abundance (concentration: 10mM)
G5E9A6 and related entries (UniProt P51784) | 1.009 ± 0.0061 | 1.03 ± 0.044 | 0.947 ± 0.0056 | 0.95 ± 0.046 | 0.935 ± 0.054 | 0.917 ± 0.034 | 0.915 ± 0.03 | 0.883 ± 0.05
E9PLY5 and related entries (UniProt Q9UPN3+H3BQK9+H3BPE1+E9PLY5) | 1 ± 0.058 | 0.997 ± 0.062 | 1.02 ± 0.063 | 1 ± 0.069 | 1.01 ± 0.052 | 1.01 ± 0.049 | 1.03 ± 0.067 | 1.02 ± 0.073
